Reference: PubChem BioAssay AID1259308 (NCATS, 2017)

Purpose: 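Genes whose loss raises luciferase production in HEK293 cells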 (primary screen)
Cells: human HEK293 embryonic kidney cells stably expressing firefly luciferase (HEK-CMV-Luc2-Hygro)
Reagents: single siRNA against human genes, 0.8 pmol siRNA per well
Duration: 72 h
Detection: 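Reporter luminescence and viable-cell signal on separate replicate plates, given as percent of non-targeting control and median/MAD z-scores, plus per-cell luciferase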
Direction: total luciferase, z-score: higher = more reporter protein produced
Rule for the call: 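Active when the median/MAD z-score for overall luciferase is greater than 3; a gene was taken forward for validation with new siRNAs if at least two of its three siRNAs passed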
Calls: active = raised luciferase; inactive = no rise
The whole screen tested about 59,000 reagents; this is a random part of them. About 1,510 of them (2.6%) were called active. 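Calls use total luciferase alone and ignore viability, so some active siRNAs may act by altering cell number.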 Entries without a mark were called inactive. The numbers tell different reagents against one gene apart. Not all columns of the deposit are shown.

DCP1B #1 — total luciferase, z-score = -0.635
DCP1B #2 — total luciferase, z-score = -2.2
DCP1B #3 — total luciferase, z-score = -0.127
ZNF469 #1 — total luciferase, z-score = -1.51
ZNF469 #2 — total luciferase, z-score = -0.213
ZNF469 #3 — total luciferase, z-score = -0.871
PRRT3 #1 — total luciferase, z-score = 0.845
PRRT3 #2 — total luciferase, z-score = -0.804
PRRT3 #3 — total luciferase, z-score = 0.62
TMPRSS11F #1 — total luciferase, z-score = -1.07
TMPRSS11F #2 — total luciferase, z-score = 2.31
TMPRSS11F #3 — total luciferase, z-score = 0.515
NR2C2 #1 — total luciferase, z-score = -1.06
NR2C2 #2 — total luciferase, z-score = 0.905
NR2C2 #3 — total luciferase, z-score = -0.829
CCDC170 #1 — total luciferase, z-score = 0.284
CCDC170 #2 — total luciferase, z-score = -0.367
CCDC170 #3 — total luciferase, z-score = 0.924
XKR8 #1 — total luciferase, z-score = 1.45
XKR8 #2 — total luciferase, z-score = 2.55
XKR8 #3 — total luciferase, z-score = 0.33
GEMIN4 #1 — total luciferase, z-score = -1.11
GEMIN4 #2 — total luciferase, z-score = -0.946
GEMIN4 #3 — total luciferase, z-score = 0.602
NKX2-5 #1 — total luciferase, z-score = -0.535
NKX2-5 #2 — total luciferase, z-score = 1.09
NKX2-5 #3 — total luciferase, z-score = -0.228
COPB2 #1 — total luciferase, z-score = 3.01 (active)
COPB2 #2 — total luciferase, z-score = 1.54
COPB2 #3 — total luciferase, z-score = 1.67
PIGU #1 — total luciferase, z-score = 2.3
PIGU #2 — total luciferase, z-score = 0.609
PIGU #3 — total luciferase, z-score = -0.622
